Test results as given in patent US20230120270A1.
These are yes or no findings as the source states them, for the method shown. Binding seen in cells or lysates may run through a third protein. Some binding calls cover weakened binding; strength is not graded here.

Experiments:
[1] = target: Light chain of I0; test: co-expression, LC-MS of the product
[2] = target: Light chain of I0; test: co-expression of heavy and light chain (I/D-1), LC-MS of the product; √ = mispaired molecule detected

## Heavy chain of D0 (from UniProt P0DOX5 1-449)
[1]
  binding: binds
[2]
  binding: binds
